Laboratory results: PubChem BioAssay AID1347426 (Functional Genomics Laboratory (NCATS/FGL), 2020)
About 1,400 (4.5%) of roughly 31,000 sequences were called active.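 How the source made its calls: active means median seed-adjusted z-score above 1 or below -1; inactive means the rest.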 The list shows a part of the results.

Assay: Novel Modifiers of Survival Motor Neuron (SMN) Protein: Gene Identification via Genome-wide siRNA Screen;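 further: luminescence tracks full-length SMN protein made from the SMN2 reporter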
Conditions: HEK293T SMN2-luciferase reporter, siRNA knockdown, 72 h; actives lie on both sides
Method in brief: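 Luciferase signal, proportional to full-length SMN made from an SMN2 cDNA reporter in stable HEK293T cells, was read 72 h after siRNA reverse transfection. Values were expressed as MAD scores after non-targeting-control normalization and log10 conversion; seed analysis flagged off-targets.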

| Sequence | median seed-adjusted z-score |
| --- | --- |
| CACCUUACCUCAAUAUCUATT against PTPDC1 | inactive: -0.191 |
| GGUAAAGUCCAGUUCGUGATT against GRM7 | inactive: 0.389 |
| GCAUCGAAGGGAUCUAUAATT against CACNG4 | inactive: -0.0702 |
| GUACCAGUCUAGCGCAAUATT against BMX | inactive: -0.00712 |
| GGUUCACGGAGAGUCAGAATT against PER2 | inactive: -0.113 |
| AGAAUUUAAAGAUCCACAATT against ZIC1 | inactive: 0.162 |
| ACAUCACCAUGACAGAUUUTT against PNMT | inactive: -0.559 |
| CAAUGUGCGUGAGAAGUCATT against EPN2 | inactive: -0.00173 |
| GCUGCAGGUUGUAAAUAGUTT against CCNO | inactive: -0.594 |
| UCCCGUUCCGUACGACUUATT against DHRS7C | inactive: -0.398 |
| GUAUAGAUCUCUAUUUCUATT against COPZ1 | active: -1.02 |
| GCAGAUUUUGAGCAACUGATT against TRIM5 | inactive: 0.0758 |
| GAUUAAUCCUACCAUAUGATT against ARID5B | inactive: 0 |
| GAAAGGAGAUUCCAACCUATT against PCDHGA3 | inactive: 0.27 |
| GUGGACAAAUUGACCUUAATT against OAT | inactive: -0.0231 |
| GAUGAAAUCUACUCUCGAATT against ZNF615 | inactive: 0.0912 |
| GAACUAAUCAGGAAGCUUATT against DHX40 | inactive: -0.75 |
| GGAAUUAGGUCUAACAGCATT against SMG1 | inactive: -0.106 |
| GGCUAUCAGUCUGAUGCAATT against ADAMTS5 | inactive: -0.306 |
| GCAUAAUCCAUGUACCGAATT against SIPA1L2 | inactive: -0.573 |
| GAACUUACCUUACAUAGCUTT against MERTK | inactive: 0.369 |
| CAGAAUCAGCUGGAAGAAATT against BAIAP2 | inactive: -0.0497 |
| GUUCAGAUCUUGUUAAGCATT against ZNF271 | inactive: 0.484 |

| Sequence | median seed-adjusted z-score |
| --- | --- |
| GCAUCUACGUGGGUAACUUTT against SFRS1 | active: -1.66 |
| GGCUAACUAUUUUGUCAGATT against ABHD7 | inactive: -0.301 |
| GGACAAAGUACAAACGGCATT against EMX1 | inactive: -0.689 |
| CAGUGGACUUCCAACCCAATT against SF3A1 | active: -1.09 |
| CAGGACAUCUGGUAUGUUATT against ERN1 | inactive: 0.684 |
| UGCUGAAGGAUAACAAGAATT against ACADS | inactive: 0.121 |
| GGUACAAAGCAAUCGGACATT against GUCA2B | inactive: -0.146 |
| GCACUUGCUUUAGCUAUCATT against PSMA4 | inactive: 0 |
| GCAUGGAGUCCAACACUGATT against NR2E3 | inactive: -0.184 |
| CAUUGUUACUGGAACUGAUTT against KPNA4 | inactive: 0.457 |
| GUAGAGAUCUUGUAGAAUATT against ARL6IP2 | inactive: 0.274 |
| GGUCUUCAGUCCUCGGAUATT against FAT4 | inactive: -0.363 |
| GAAACUUUCAUUACGUAUATT against SNX7 | inactive: 0.146 |
| CAACAACUAUUCACCAAAUTT against DNAJB7 | inactive: 0.684 |
| CCACGUCUCUGGAGAGUUUTT against ALAD | inactive: 0.0952 |
| GAGUGACCAUUCCAACAGATT against DAG1 | inactive: -0.104 |
| GCAUGUCCCGAAAACAAGATT against KLF7 | inactive: 0.393 |
| GCACAGUUGUCACUACCAUTT against KCNK16 | inactive: 0 |
| GCACCUUCACGUUUCGAAATT against GMPR | inactive: 0.0757 |
| CCACUGCUACCACAAGUUUTT against RET | inactive: -0.931 |
| CAAUCGAACGUAAACAACATT against ADD3 | inactive: 0.0741 |
| CCGCAGCUGCUAUAAGAGATT against SLC9A10 | inactive: -0.0418 |
| GCGUGCUCUUCUUCGCUGATT against B3GAT2 | inactive: 0.33 |

4 entries from above, with bars between the fields:
Sequence | median seed-adjusted z-score
CAGGACAUCUGGUAUGUUATT against ERN1 | inactive: 0.684
GAAACUUUCAUUACGUAUATT against SNX7 | inactive: 0.146
GCACCUUCACGUUUCGAAATT against GMPR | inactive: 0.0757
CCGCAGCUGCUAUAAGAGATT against SLC9A10 | inactive: -0.0418

(next part)

| Sequence | median seed-adjusted z-score |
| --- | --- |
| CCUCAAAUGCAGUAUUUUUTT against HMOX1 | inactive: 0.45 |
| GGUCGUUUUAGAUCAAUGATT against PPFIA1 | inactive: 0.312 |
| GGCUGUGCACGAGAAUCUATT against KIFC3 | inactive: 0.54 |
| CAAGAUGCUGGAUAAGGAATT against GYS1 | inactive: 0.874 |
| GGAGGGAUCUGGAUUCAUUTT against LCMT2 | inactive: -0.0205 |
| CAAUAUCUGCUGUUAGCAATT against SCARB2 | inactive: -0.244 |
| GCCUUCUACUCGCUGAACATT against IRX4 | inactive: 0.0613 |
| GCUGUUGCUUCAUACGAUUTT against NPM2 | inactive: 0.215 |
| GGACGACCACCUAAGAACATT against MGA | inactive: 0.0136 |
| CGGUCACAAUUUGCGCUGATT against ST8SIA3 | inactive: -0.848 |
| CGAAGAUCCUAGAGAUGCATT against SFRS7 | inactive: 0.44 |
| GGGCGAAAGUAUCAUAUCATT against UGCGL1 | inactive: -0.391 |
| CCACCUACAUCGGCAUCUATT against SLC6A9 | inactive: 0.241 |
| GGUUGAAAAGGAGUGCAAATT against CACYBP | inactive: -0.33 |
| GGAACACGCAUGUCUGGAATT against NOS1 | inactive: 0.0195 |
| GCACUGGGACCAUACCAAATT against IL11RA | inactive: -0.708 |
| GCAAUACCCUAGAGAAGGATT against SMAP2 | inactive: -0.0114 |
| GCAGAUUGUUUUACAAGGATT against ZNF143 | inactive: -0.357 |
| GCAAGGCGGUGUUCUCCAUTT against MRGPRF | inactive: -0.654 |
| GGAAAACGGAAAGAUCAAATT against APOD | inactive: -0.115 |
| CCAAUGCAGUGAUUACCGUTT against HSPA1L | active: -1.27 |
| CAGUUCCACUCAUUCAAGATT against GPT | inactive: -0.00224 |
| GUAGCUAACAUGAAAGAGATT against SIX4 | inactive: 0.0462 |
